This is one part of the list.
Columns and labels:
Assay in all cases: glycan array binding signal (z-score within array); higher = stronger binding
Settings in all cases: glycan notation: IUPAC condensed, linker removed
[1] = target: Fuc(a1-3)[Gal3S(b1-4)]GlcNAc6S
Procedure, shortened: (§1)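 The Consortium for Functional Glycomics database supplied 3228 glycan arrays, of which those lacking an available protein sequence were dropped. The binding signal, a within-array Z-score, was averaged across arrays of the same protein sequence and across linkers. Negative scores can be read as non-binding.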

[2] = target: Fuc(a1-3)[GalNAc(b1-4)]GlcNAc
Procedure, shortened: as §1

[3] = target: Fuc(a1-3)[GalNAc(b1-4)]GlcNAc6S
Procedure, shortened: as §1

Fuc(a1-4)GlcNAc = target: Fuc(a1-4)GlcNAc
Procedure, shortened: as §1

Fuc(b1-3)GlcNAc = target: Fuc(b1-3)GlcNAc
Procedure, shortened: as §1

Gal(a1-2)Gal = target: Gal(a1-2)Gal
Procedure, shortened: as §1

Gal(a1-3)Gal = target: Gal(a1-3)Gal
Procedure, shortened: as §1

Gal(a1-3)Gal(b1-3)GlcNAc = target: Gal(a1-3)Gal(b1-3)GlcNAc
Procedure, shortened: as §1

[4] = target: Gal(a1-3)Gal(b1-3)GlcNAc(b1-2)Man
Procedure, shortened: as §1

[5] = target: Gal(a1-3)Gal(b1-3)GlcNAc(b1-2)Man(a1-3)[Gal(a1-3)Gal(b1-3)GlcNAc(b1-2)Man(a1-6)]Man(b1-4)GlcNAc(b1-4)GlcNAc
Procedure, shortened: as §1

[6] = target: Gal(a1-3)Gal(b1-3)GlcNAc(b1-3)GalNAc
Procedure, shortened: as §1

[7] = target: Gal(a1-3)Gal(b1-3)GlcNAc(b1-6)GalNAc
Procedure, shortened: as §1

[8] = target: Gal(a1-3)Gal(b1-3)[Fuc(a1-4)]GlcNAc(b1-2)Man(a1-3)[Gal(a1-3)Gal(b1-3)[Fuc(a1-4)]GlcNAc(b1-2)Man(a1-6)]Man(b1-4)GlcNAc(b1-4)GlcNAc
Procedure, shortened: as §1

Gal(a1-3)Gal(b1-4)Glc = target: Gal(a1-3)Gal(b1-4)Glc
Procedure, shortened: as §1

Gal(a1-3)Gal(b1-4)GlcNAc = target: Gal(a1-3)Gal(b1-4)GlcNAc
Procedure, shortened: as §1

[9] = target: Gal(a1-3)Gal(b1-4)GlcNAc(b1-2)Man
Procedure, shortened: as §1

[10] = target: Gal(a1-3)Gal(b1-4)GlcNAc(b1-2)Man(a1-3)[Gal(a1-3)Gal(b1-4)GlcNAc(b1-2)Man(a1-6)]Man(b1-4)GlcNAc(b1-4)GlcNAc
Procedure, shortened: as §1

[11] = target: Gal(a1-3)Gal(b1-4)GlcNAc(b1-3)GalNAc
Procedure, shortened: as §1

[12] = target: Gal(a1-3)Gal(b1-4)GlcNAc(b1-6)GalNAc
Procedure, shortened: as §1

[13] = target: Gal(a1-3)Gal(b1-4)[Fuc(a1-3)]GlcNAc
Procedure, shortened: as §1

[14] = target: Gal(a1-3)Gal(b1-4)[Fuc(a1-3)]GlcNAc(b1-2)Man(a1-3)[Gal(a1-3)Gal(b1-4)[Fuc(a1-3)]GlcNAc(b1-2)Man(a1-6)]Man(b1-4)GlcNAc(b1-4)GlcNAc
Procedure, shortened: as §1

Gal(a1-3)GalNAc = target: Gal(a1-3)GalNAc
Procedure, shortened: as §1

[15] = target: Gal(a1-3)[Gal(a1-4)]Gal(b1-4)GlcNAc
Procedure, shortened: as §1

[16] = target: Gal(a1-4)Gal(b1-3)GlcNAc(b1-2)Man(a1-3)[Gal(a1-4)Gal(b1-3)GlcNAc(b1-2)Man(a1-6)]Man(b1-4)GlcNAc(b1-4)GlcNAc
Procedure, shortened: as §1

Gal(a1-4)Gal(b1-4)Glc = target: Gal(a1-4)Gal(b1-4)Glc
Procedure, shortened: as §1

Gal(a1-4)Gal(b1-4)GlcNAc = target: Gal(a1-4)Gal(b1-4)GlcNAc
Procedure, shortened: as §1

[17] = target: Gal(a1-4)Gal(b1-4)GlcNAc(b1-2)Man(a1-3)[Gal(a1-4)Gal(b1-4)GlcNAc(b1-2)Man(a1-6)]Man(b1-4)GlcNAc(b1-4)GlcNAc
Procedure, shortened: as §1

[18] = target: Gal(a1-4)Gal(b1-4)GlcNAc(b1-3)Gal(b1-4)Glc
Procedure, shortened: as §1

Gal(a1-4)GlcNAc = target: Gal(a1-4)GlcNAc
Procedure, shortened: as §1

Gal(a1-6)Glc = target: Gal(a1-6)Glc
Procedure, shortened: as §1

Gal(b1-2)Gal = target: Gal(b1-2)Gal
Procedure, shortened: as §1

Gal(b1-3)Gal = target: Gal(b1-3)Gal
Procedure, shortened: as §1

Gal(b1-3)Gal(b1-4)GlcNAc = target: Gal(b1-3)Gal(b1-4)GlcNAc
Procedure, shortened: as §1

Gal(b1-3)GalNAc = target: Gal(b1-3)GalNAc
Procedure, shortened: as §1

[19] = target: Gal(b1-3)GalNAc(a1-3)[Fuc(a1-2)]Gal(b1-4)Glc
Procedure, shortened: as §1

[20] = target: Gal(b1-3)GalNAc(a1-3)[Fuc(a1-2)]Gal(b1-4)GlcNAc
Procedure, shortened: as §1

Gal(b1-3)GalNAc(b1-3)Gal = target: Gal(b1-3)GalNAc(b1-3)Gal
Procedure, shortened: as §1

[21] = target: Gal(b1-3)GalNAc(b1-3)Gal(a1-4)Gal(b1-4)Glc
Procedure, shortened: as §1

[22] = target: Gal(b1-3)GalNAc(b1-4)Gal(b1-4)Glc
Procedure, shortened: as §1

[23] = target: Gal(b1-3)GalNAc(b1-4)[Neu5Ac(a2-3)]Gal(b1-4)Glc
Procedure, shortened: as §1

Gal(b1-3)GlcNAc = target: Gal(b1-3)GlcNAc
Procedure, shortened: as §1

[24] = target: Gal(b1-3)GlcNAc(a1-3)Gal(b1-4)GlcNAc
Procedure, shortened: as §1

[25] = target: Gal(b1-3)GlcNAc(a1-6)Gal(b1-4)GlcNAc
Procedure, shortened: as §1

Gal(b1-3)GlcNAc(b1-2)Man = target: Gal(b1-3)GlcNAc(b1-2)Man
Procedure, shortened: as §1

[26] = target: Gal(b1-3)GlcNAc(b1-2)Man(a1-3)[Gal(b1-3)GlcNAc(b1-2)Man(a1-6)]Man(b1-4)GlcNAc(b1-4)GlcNAc
Procedure, shortened: as §1

B1: PX14379D-pdi-530-26-530 (Parabacteroides distasonis) (protein)
chain: DETVYDKLPADDFGQSTAELNALIGNSHNTMKKFWTEYMHLSECSGSMAVTPTRRGGDWYDGGQYREIYMHTWTSQTSRVKSAWKAATEAIGTCNEAIRKLQNSEILTEEEKAQDVADLRGVRAFWIYVMMDYWGNIPLLTEFHPTDKVFPGNSSRQEVFDWLIQEVEEIKDICPPATTENYGSFTQGAAYSLLAKLYLNAEAWGVTFSGNAYQKVIDNCDKVMAMGYILEPNWKDNFSVTNENSKEAILAATFSSSDTGNDGNVKNELHNNTLHYKDYLSLGITASGTWNGICAQPEYVRLFDEEDARLDGTFLTGLMIDKSTGKPIMTDHNNELNHTIDVNMIPGMEYDGTNWSAVEQHDGARCFKWEFASDLTSSMGNDFHIFRLADIYLMKAEALLRGGGSVSEATALVNTIRERGYGNSDHNYATVTLKEVQLERRLELAWEVYSRQDDIRFGCFTTGMWPQSNCERKADDYLKLLPVSQDAWQVNPNLKQNPGYAAFSK
B1 was tested, and the “glycan array binding signal (z-score)” value [1] was -0.261, the “glycan array binding signal (z-score)” value [2] was -0.221 and the “glycan array binding signal (z-score)” value [3] was -0.013. The “glycan array binding signal (z-score)” value (Fuc(a1-4)GlcNAc) was -0.952, the “glycan array binding signal (z-score)” value (Fuc(b1-3)GlcNAc) was -0.499 and the “glycan array binding signal (z-score)” value (Gal(a1-2)Gal) was -0.331. For the same binder, the “glycan array binding signal (z-score)” value (Gal(a1-3)Gal) was -0.878, the “glycan array binding signal (z-score)” value (Gal(a1-3)Gal(b1-3)GlcNAc) was -0.681 and the “glycan array binding signal (z-score)” value [4] was -0.354. The “glycan array binding signal (z-score)” value [5] was 1.73, the “glycan array binding signal (z-score)” value [6] was -0.798 and the “glycan array binding signal (z-score)” value [7] was -0.581. For the same binder, the “glycan array binding signal (z-score)” value [8] was 2.48, the “glycan array binding signal (z-score)” value (Gal(a1-3)Gal(b1-4)Glc) was -0.838 and the “glycan array binding signal (z-score)” value (Gal(a1-3)Gal(b1-4)GlcNAc) was 1.1. The “glycan array binding signal (z-score)” value [9] was -0.227, the “glycan array binding signal (z-score)” value [10] was 1.1 and the “glycan array binding signal (z-score)” value [11] was -0.333. The “glycan array binding signal (z-score)” value [12] was -0.109, the “glycan array binding signal (z-score)” value [13] was -1.3 and the “glycan array binding signal (z-score)” value [14] was 0.036. For the same binder, the “glycan array binding signal (z-score)” value (Gal(a1-3)GalNAc) was -0.171, the “glycan array binding signal (z-score)” value [15] was 4.67 and the “glycan array binding signal (z-score)” value [16] was 1.05. For the same binder, the “glycan array binding signal (z-score)” value (Gal(a1-4)Gal(b1-4)Glc) was 1.1, the “glycan array binding signal (z-score)” value (Gal(a1-4)Gal(b1-4)GlcNAc) was 0.793 and the “glycan array binding signal (z-score)” value [17] was 0.97. The “glycan array binding signal (z-score)” value [18] was -0.544, the “glycan array binding signal (z-score)” value (Gal(a1-4)GlcNAc) was 0.348 and the “glycan array binding signal (z-score)” value (Gal(a1-6)Glc) was 0.995. The “glycan array binding signal (z-score)” value (Gal(b1-2)Gal) was -1.23, the “glycan array binding signal (z-score)” value (Gal(b1-3)Gal) was -0.435 and the “glycan array binding signal (z-score)” value (Gal(b1-3)Gal(b1-4)GlcNAc) was 0.29. For the same binder, the “glycan array binding signal (z-score)” value (Gal(b1-3)GalNAc) was 0.214, the “glycan array binding signal (z-score)” value [19] was -0.68 and the “glycan array binding signal (z-score)” value [20] was -0.876. For the same binder, the “glycan array binding signal (z-score)” value (Gal(b1-3)GalNAc(b1-3)Gal) was -1.03, the “glycan array binding signal (z-score)” value [21] was -1.08 and the “glycan array binding signal (z-score)” value [22] was 0.294. For the same binder, the “glycan array binding signal (z-score)” value [23] was -0.525, the “glycan array binding signal (z-score)” value (Gal(b1-3)GlcNAc) was -0.114 and the “glycan array binding signal (z-score)” value [24] was -0.704. The “glycan array binding signal (z-score)” value [25] was 0.266, the “glycan array binding signal (z-score)” value (Gal(b1-3)GlcNAc(b1-2)Man) was -0.427 and the “glycan array binding signal (z-score)” value [26] was 1.16.

— the supplement of paper PMC8728848
